Drawing on patent US20160017024A1, this text covers binding for 1 molecule.

Results are given in words; binding and its absence hold for the method and conditions named. Some binding calls cover weakened binding; strength is not graded here.

Experiment [1] deals with Human ALK ECD-Fc (human). Description: SPR (Biacore T100), ECD-Fc captured on anti-human IgG CM4 chip, FAM150B as analyte. For orientation: Surface plasmon resonance follows binding to a sensor surface in real time, without labels.
Experiment [2] addresses Human LTK extracellular domain (ECD)-Fc (human). The description is as above.

B1: Human FAM150B (ligand)
chain: GAEPREPADGQALLRLVVELVQELRKHHSAEHKGLQLLGRDCALGRAEAAGLGPSPEQRVEIVPRDLRMKDKFLKHLTGPLYFSPKCSKHFHRLYHNTRDCTIPAYYKRCARLLTRLAVSPVCMEDKQ
Take B1: the binding result in experiment [1] and in experiment [2] was “binds” in each case.
